Taken from: PubChem BioAssay AID1053208 (Peter MacCallum Cancer Centre, 2014)
Aim: 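Synthetic lethal interactions between gene loss and doxorubicin in osteosarcoma cells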 (primary screen). Cell system: mouse osteosarcoma cells, early-passage culture from an engineered mouse model of fibroblastic bone tumour. Knock-down reagent: siRNA pool against mouse genes, 40 nM. Time to read-out: about 120 h (48 h before drug, then 72 h with drug). Treatment: doxorubicin 100 nM for 72 h, roughly 30-40% inhibitory dose. Measured: 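Viability read as ATP luminescence after 72 h of 100 nM doxorubicin or none, duplicate wells averaged, scaled to non-targeting siRNA, then expressed as robust z-scores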. Scale: viability z-score with doxorubicin: higher = more viable cells under doxorubicin; viability z-score without drug: higher = more viable cells with knock-down alone. Call rule: 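Called active if knock-down leaves viability unchanged without drug (z within -2 to 2) but lowers it with doxorubicin (z at or under -2)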.
In all, the deposit lists about 17,000 reagents; this is a part drawn at random. Over the whole deposit, 788 (4.7%) are marked active. 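Calls rest on z-score classes alone; an extra cut-off of viability at most 70% of control was not applied to them.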 Further read-outs or replicates are left out here.

| Target gene | PubChem SID | combined z-score class | viability z-score with doxorubicin | viability z-score without drug | outcome |
| --- | --- | --- | --- | --- | --- |
| Kcnj12 | SID152324905 | no change with or without drug | -1.46 | -1.52 | inactive |
| Vmn1r181 | SID152329000 | no change with or without drug | -1.35 | -1.69 | inactive |
| Ube2e1 | SID152325783 | no change with or without drug | -1.12 | 0 | inactive |
| Stambpl1 | SID152336690 | no change with or without drug | 0 | 0.84 | inactive |
| Siglecl2 | SID152312011 | no change with or without drug | -0.56 | 1.52 | inactive |
| Appl2 | SID152264861 | no change with or without drug | -0.45 | 0.34 | inactive |
| Rpgrip1 | SID152311538 | low cell count with doxorubicin only | -2.36 | -0.51 | active |
| Olfm2 | SID152339995 | no change with or without drug | 0.45 | 0 | inactive |
| Stx16 | SID152285150 | no change with or without drug | -1.01 | -1.35 | inactive |
| Dnm2 | SID152316728 | low cell count with doxorubicin only | -2.02 | -0.67 | active |
| Speer4f1 | SID152284527 | low cell count with doxorubicin only | -2.02 | -0.67 | active |
| Or8c15 | SID152340031 | no change with or without drug | 0.79 | 0.84 | inactive |
| Pcyt1b | SID152296938 | no change with or without drug | 0.9 | 1.18 | inactive |
| Foxj1 | SID152276689 | high cell count without drug only | 1.35 | 2.53 | inactive |
| Jkampl | SID152292585 | high cell count without drug only | 0.67 | 3.2 | inactive |
| Polr1a | SID152276347 | low cell count with doxorubicin only | -3.37 | -1.18 | active |
| Bdp1 | SID152303103 | low cell count with doxorubicin only | -2.25 | -0.67 | active |
| Ahsp | SID152298959 | no change with or without drug | 0.9 | 0.84 | inactive |
| Slain1 | SID152291768 | no change with or without drug | 0.56 | -1.18 | inactive |
| Zfp879 | SID152313837 | low cell count with doxorubicin only | -2.02 | -0.34 | active |
| Usp17la | SID152275777 | no change with or without drug | -0.67 | 1.18 | inactive |
| Mutyh | SID152335009 | high cell count with doxorubicin only | 2.14 | 0.84 | inactive |
| Higd1b | SID152322400 | low cell count with doxorubicin only | -2.36 | 0 | active |
| Gab2 | SID152325830 | no change with or without drug | 0 | 0.84 | inactive |
| Ccdc54 | SID152330678 | no change with or without drug | -0.11 | 1.18 | inactive |
| Prxl2a | SID152299765 | no change with or without drug | 1.35 | 1.52 | inactive |
| Neurod2 | SID152270239 | no change with or without drug | 0.22 | 0.34 | inactive |
| Dpy19l1 | SID152312300 | no change with or without drug | -1.01 | -0.17 | inactive |
| Tmem64 | SID152290573 | no change with or without drug | -1.57 | -0.84 | inactive |
| Ppp2r5c | SID152280161 | high cell count with doxorubicin only | 2.02 | 0 | inactive |

Part of the list above, reduced to “viability z-score with doxorubicin”:
Zfp879 [SID152313837]	-2.02
Usp17la [SID152275777]	-0.67
Mutyh [SID152335009]	2.14
Higd1b [SID152322400]	-2.36
Gab2 [SID152325830]	0
Ccdc54 [SID152330678]	-0.11
Prxl2a [SID152299765]	1.35
Neurod2 [SID152270239]	0.22

Next entries follow.
| Target gene | PubChem SID | combined z-score class | viability z-score with doxorubicin | viability z-score without drug | outcome |
| --- | --- | --- | --- | --- | --- |
| 6530405K19 | SID152302852 | no change with or without drug | -0.34 | 0.51 | inactive |
| Sprr2f | SID152271790 | high cell count with and without drug | 2.59 | 2.53 | inactive |
| Igfbpl1 | SID152273964 | no change with or without drug | -1.12 | -0.34 | inactive |
| Cherp | SID152288388 | no change with or without drug | -1.12 | -1.18 | inactive |
| Klk1b16 | SID152340370 | no change with or without drug | 0.45 | 0.17 | inactive |
| Dbp | SID152303488 | no change with or without drug | 0.9 | 0.51 | inactive |
| Gm9927 | SID152284425 | no change with or without drug | -1.12 | -1.18 | inactive |
| Edn3 | SID152296706 | no change with or without drug | -1.01 | -0.51 | inactive |
| Paqr7 | SID152269162 | no change with or without drug | -0.34 | -0.67 | inactive |
| Foxo3 | SID152290416 | no change with or without drug | 1.12 | -0.17 | inactive |
| Samm50 | SID152298052 | no change with or without drug | -1.24 | 0.51 | inactive |
| Hsd17b8 | SID152309425 | no change with or without drug | 0 | 0.17 | inactive |
| Reg3b | SID152275649 | no change with or without drug | 0.9 | -0.17 | inactive |
| Rundc3b | SID152272524 | no change with or without drug | -0.79 | -0.17 | inactive |
| Xpnpep3 | SID152299709 | no change with or without drug | 0.34 | 0.34 | inactive |
| Wdr12 | SID152302217 | no change with or without drug | -0.79 | -1.85 | inactive |
| Twf2 | SID152294672 | no change with or without drug | -0.67 | -0.51 | inactive |
| B4galt4 | SID152335449 | no change with or without drug | 1.01 | 0.51 | inactive |
| Peg12 | SID152260882 | low cell count with doxorubicin only | -2.81 | -0.17 | active |
| Mbd1 | SID152312107 | no change with or without drug | 0.45 | -0.34 | inactive |
